Results are given in words; binding and its absence hold for the method and conditions named.
B1: TrkB-agoAb303 (antibody, V domains shown)
VH: DVKLVESGGGLVKPGGSLKLSCAASGFTFSSYTMSWVRQTPEKRLEWVATISSGGDYTYFPDSVKGRFTMSRDNAKNALYLQMSSLKSEDTAMYYCTRESGRGDFDYWGQGTTLTVSS
VL: DVLMTQTPLSLPVSLGDQASISCRSSQNIVHSNGNTYLEWYLQKPGQSPNLLIYNVSNRFSGVPDRFSGSGSGTDFTLKISRVEAEDLGVYYCFQGSHFPWTFGGGTKLEIT
notes: Mouse monoclonal antibody
B2: TrkB-agoAb1104 (antibody, IgG1, V domains shown)
VH: QVQLQQSGAELARPGASVKLSCKASGYTFTRYWMQWVKQRPGQGLEWIGAIYPGDGDTRYTQKFKGKATLTADKSSSTAYMQLSSLASEDSAVYYCAGSGLGRAWFTYWGQGTLVTVSA
VL: DIQMTQSPASLSASVGETVTITCRSSENIYSYLAWYQQKQGKSPQLLVYNAKTLAEGVPSRFSGSGSGTQFSLKINSLQPEDFGSYYCQHHYGPPYTFGGGTKLEIK
B3: TrkB-agoAb2908 (antibody, IgG1, V domains shown)
VH: QVQLQQSGPELVKPGASVKISCKASGYTFSSSWMNWVKQRPGQGLEWIGRIYPGDGHTNYNGKFKGKATLTADKSSSTAYMQLTSLTSVDSGVYFCARSGYGYGFDCWGQGTTLTVSS
VL: NIVLTQSPASLAVSLGQRATISCRASESVDNYGNSLMHWYQQKPGQPPKLLIYLASNLESGVPARFSGSGSRTDFTLTIDPVEADDAATYYCQQNNEDPPWTFGGGTKLEIKR

Each binder was assayed against TrkC (assay: ELISA on coated TrkC, antibody at 10 nM, 1 nM and 0.1 nM).

Row | Binder | binding
1 | B1 | no binding (tested: 10 nM)
2 | B2 | no binding (tested: 10 nM)
3 | B3 | no binding (tested: 10 nM)

Each binder was assayed against TrkC (assay: ELISA, protein coated on plate).

Row | Binder | binding
4 | B1 | no binding (tested: 10 nM, 1 nM or 0.1 nM antibody)
5 | B2 | no binding (tested: 10 nM, 1 nM or 0.1 nM antibody)
6 | B3 | no binding (tested: 10 nM, 1 nM or 0.1 nM antibody)

Source: patent US20210269531A1 (TSINGHUA UNIVERSITY, published 2021)
